{
  "source": "the supplement of paper PMC9015667",
  "note": "Where a name gives a salt, the structure may show the parent alone. Some of the results follow. Single values are uncertain, as repeats are few or missing.",
  "data": [
    {"tested_on": "UACC62R (matched melanoma line resistant to BRAF inhibitors)", "test": "reduction in cell viability relative to untreated/vehicle; higher = more growth inhibition", "details": "200 nM; 72 h", "units": {"reduction in cell viability": "%"}, "values": [
      {"smiles": "CC[C@H](c1ccc(O)cc1)[C@@H](CC)c1ccc(O)cc1", "note": "[Hexestrol]", "reduction in cell viability": "< 0"},
      {"smiles": "CN(c1nccc(=O)[nH]1)C1CCN(c2nc3ccccc3n2Cc2ccc(F)cc2)CC1", "note": "[Mizolastine]", "reduction in cell viability": "< 0"},
      {"smiles": "COc1cc2nccc(Oc3ccc(NC(=O)Nc4cc(C)on4)c(Cl)c3)c2cc1OC", "note": "[Tivozanib]", "reduction in cell viability": "< 0"},
      {"smiles": "COc1cc2nc(N3CCN(C(=O)c4ccco4)CC3)nc(N)c2cc1OC", "note": "[Prazosin hydrochloride]", "reduction in cell viability": "< 0"},
      {"smiles": "CC(C)c1ccc(Cn2ccc3c4c(N)nc(NC5CC5)nc4ccc32)cc1", "reduction in cell viability": 71.6},
      {"smiles": "COc1nccc(-c2c(-c3ccc(F)cc3)ncn2C2CCNCC2)n1", "reduction in cell viability": "< 0"},
      {"smiles": "COc1nc(C)cnc1NS(=O)(=O)c1cccnc1-c1ccc(-c2nnco2)cc1", "note": "[Zibotentan]", "reduction in cell viability": "< 0"},
      {"smiles": "CCOC(=O)Nc1ccc(NCc2ccc(F)cc2)nc1N", "note": "[Flupirtine maleate]", "reduction in cell viability": "< 0"},
      {"smiles": "O=C(NCC1CCCCN1)c1cc(OCC(F)(F)F)ccc1OCC(F)(F)F", "note": "(stereo not given) [Flecainide]", "reduction in cell viability": "< 0"},
      {"smiles": "CC(C(=O)O)c1cccc(C(=O)c2ccccc2)c1", "note": "(stereo not given) [Ketoprofen]", "reduction in cell viability": "< 0"},
      {"smiles": "CCc1cnn2c(NCc3ccc[n+]([O-])c3)cc(N3CCCC[C@H]3CCO)nc12", "reduction in cell viability": 62.2},
      {"smiles": "O=C(/C=C/c1cccnc1)NCCCCC1CCN(C(=O)c2ccccc2)CC1", "note": "[FK866 (APO866, Daporinad)]", "reduction in cell viability": 4.54},
      {"smiles": "CC(C)NCC(O)COc1ccc(CCOCC2CC2)cc1", "note": "(stereo not given) [Betaxolol]", "reduction in cell viability": "< 0"},
      {"smiles": "Cc1cc(C(C)Nc2ccccc2)c2nc(N3CCOCC3)cc(=O)n2c1", "note": "(stereo not given)", "reduction in cell viability": "< 0"},
      {"smiles": "COc1cc([C@@H]2c3cc4c(cc3[C@@H](O[C@@H]3O[C@@H]5CO[C@@H](C)O[C@H]5[C@H](O)[C@H]3O)[C@H]3COC(=O)[C@H]23)OCO4)cc(OC)c1O", "note": "[Etoposide]", "reduction in cell viability": 43.1},
      {"smiles": "NS(=O)(=O)OC[C@@H]1C[C@@H](n2ccc3c(N[C@H]4CCc5ccccc54)ncnc32)C[C@@H]1O", "reduction in cell viability": 83.8},
      {"smiles": "OC(CCN1CCCCC1)(c1ccccc1)C1CC2C=CC1C2", "note": "(stereo not given) [Biperiden]", "reduction in cell viability": "< 0"},
      {"smiles": "OC[C@H]1O[C@@H](n2cnc3c2N=CNC[C@H]3O)C[C@@H]1O", "note": "[Pentostatin]", "reduction in cell viability": "< 0"},
      {"smiles": "CC1(C)O[C@@H]2C[C@H]3[C@@H]4C[C@H](F)C5=CC(=O)C=C[C@]5(C)[C@H]4[C@@H](O)C[C@]3(C)[C@]2(C(=O)CO)O1", "note": "[Flunisolide]", "reduction in cell viability": "< 0"},
      {"smiles": "COc1cc2ncnc(Nc3ccc(F)c(Cl)c3)c2cc1NC(=O)/C=C/CN1CCCCC1", "note": "[Dacomitinib]", "reduction in cell viability": "< 0"},
      {"smiles": "COc1ccc(F)c(F)c1C(=O)c1cnc(NC2CCN(S(C)(=O)=O)CC2)nc1N", "reduction in cell viability": 25.8},
      {"smiles": "CC(C)C[C@@H](N)[C@H](O)C(=O)N[C@H](C(=O)N[C@H](C(=O)N[C@@H](CC(=O)O)C(=O)O)C(C)C)C(C)C", "note": "[Amastatin]", "reduction in cell viability": "< 0"},
      {"smiles": "Nc1cc(C(F)(F)F)c(-c2cc(N3CCOCC3)nc(N3CCOCC3)n2)cn1", "note": "[BKM120 (NVP-BKM120, Buparlisib)]", "reduction in cell viability": "< 0"},
      {"smiles": "C[C@H](CCC(=O)O)[C@H]1CC[C@H]2[C@@H]3[C@H](O)C[C@@H]4C[C@H](O)CC[C@]4(C)[C@H]3CC[C@]12C", "note": "[Chenodeoxycholic acid]", "reduction in cell viability": "< 0"},
      {"smiles": "CN(C)[C@@H]1C(O)=C(C(N)=O)C(=O)[C@@]2(O)C(O)=C3C(=O)c4c(O)cccc4[C@@](C)(O)[C@H]3C[C@@H]12", "note": "[Tetracycline hydrochloride]", "reduction in cell viability": "< 0"},
      {"smiles": "Cc1cc(Nc2nc(N[C@@H](C)c3ccc(F)cc3)c(C#N)cc2F)n[nH]1", "reduction in cell viability": 60.5},
      {"smiles": "CCN(CC)CCOc1ccc(Nc2ncc3cc(-c4c(Cl)cccc4Cl)c(=O)n(C)c3n2)cc1", "reduction in cell viability": 70.5},
      {"smiles": "Cc1cc(C(C)(C)C)cc(C)c1CC1=NCCN1", "note": "[Xylometazoline hydrochloride]", "reduction in cell viability": "< 0"},
      {"smiles": "CCn1cc(C(=O)O)c(=O)c2cc(F)c(N3CCNC(C)C3)c(F)c21", "note": "(stereo not given) [Lomefloxacin hydrochloride]", "reduction in cell viability": "< 0"},
      {"smiles": "C[C@]12CCC3=C4CCC(=O)C=C4CC[C@H]3[C@@H]1CC[C@@]2(O)CC#N", "note": "[Dienogest]", "reduction in cell viability": "< 0"},
      {"smiles": "CN(C)CCCN1c2ccccc2CCc2ccc(Cl)cc21", "note": "[Clomipramine]", "reduction in cell viability": "< 0"},
      {"smiles": "O=C(NCCCCN1CCOCC1)c1cc2ccccc2o1", "reduction in cell viability": "< 0"},
      {"smiles": "Cc1ccc(S(=O)(=O)Nc2cc(Cl)ccc2C(=O)Nc2nc(-c3ccccc3)cs2)cc1", "reduction in cell viability": "< 0"},
      {"smiles": "C[C@@H](Oc1cc(-c2cnn(C3CCNCC3)c2)cnc1N)c1c(Cl)ccc(F)c1Cl", "reduction in cell viability": "< 0"},
      {"smiles": "C/C=C(/C)C(=O)O[C@H]1C(C)=C[C@]23C(=O)[C@@H](C=C(CO)[C@@H](O)[C@]12O)[C@H]1[C@@H](C[C@H]3C)C1(C)C", "note": "[Ingenol mebutate]", "reduction in cell viability": 59.2},
      {"smiles": "CN(C)C(=O)C(CCN1CCC(O)(c2ccc(Cl)cc2)CC1)(c1ccccc1)c1ccccc1", "note": "[Loperamide]", "reduction in cell viability": "< 0"},
      {"smiles": "O=C1c2cccc(O)c2C(=O)c2c(O)cc(CO)cc21", "note": "[Aloe-emodin]", "reduction in cell viability": "< 0"},
      {"smiles": "CC1=C(/C=C/C(C)=C/C=C/C(C)=C/C(=O)O)C(C)(C)CCC1", "note": "[Tretinoin]", "reduction in cell viability": "< 0"},
      {"smiles": "CC(C)[C@H](CO)Nc1nc(Nc2cccc(Cl)c2)c2ncn(C(C)C)c2n1", "note": "[Purvalanol A]", "reduction in cell viability": "< 0"},
      {"smiles": "O=S(=O)(O)c1ccc2cc(N=Nc3cc(S(=O)(=O)O)c4cccnc4c3O)ccc2c1", "reduction in cell viability": "< 0"}
    ]}
  ]
}
